# Data published in the supplement of paper PMC12067093, “Discovery and optimisation of a covalent ligand for TRIM25 and its application to targeted protein ubiquitination” (Chemical Science, 2025).
# Protein sequences, listed by entry. Tags and fused reporters are not part of them. Lines headed by an entry give the natural chain unless they say otherwise; changes in a name come on top.
# UniProt Q9Y490: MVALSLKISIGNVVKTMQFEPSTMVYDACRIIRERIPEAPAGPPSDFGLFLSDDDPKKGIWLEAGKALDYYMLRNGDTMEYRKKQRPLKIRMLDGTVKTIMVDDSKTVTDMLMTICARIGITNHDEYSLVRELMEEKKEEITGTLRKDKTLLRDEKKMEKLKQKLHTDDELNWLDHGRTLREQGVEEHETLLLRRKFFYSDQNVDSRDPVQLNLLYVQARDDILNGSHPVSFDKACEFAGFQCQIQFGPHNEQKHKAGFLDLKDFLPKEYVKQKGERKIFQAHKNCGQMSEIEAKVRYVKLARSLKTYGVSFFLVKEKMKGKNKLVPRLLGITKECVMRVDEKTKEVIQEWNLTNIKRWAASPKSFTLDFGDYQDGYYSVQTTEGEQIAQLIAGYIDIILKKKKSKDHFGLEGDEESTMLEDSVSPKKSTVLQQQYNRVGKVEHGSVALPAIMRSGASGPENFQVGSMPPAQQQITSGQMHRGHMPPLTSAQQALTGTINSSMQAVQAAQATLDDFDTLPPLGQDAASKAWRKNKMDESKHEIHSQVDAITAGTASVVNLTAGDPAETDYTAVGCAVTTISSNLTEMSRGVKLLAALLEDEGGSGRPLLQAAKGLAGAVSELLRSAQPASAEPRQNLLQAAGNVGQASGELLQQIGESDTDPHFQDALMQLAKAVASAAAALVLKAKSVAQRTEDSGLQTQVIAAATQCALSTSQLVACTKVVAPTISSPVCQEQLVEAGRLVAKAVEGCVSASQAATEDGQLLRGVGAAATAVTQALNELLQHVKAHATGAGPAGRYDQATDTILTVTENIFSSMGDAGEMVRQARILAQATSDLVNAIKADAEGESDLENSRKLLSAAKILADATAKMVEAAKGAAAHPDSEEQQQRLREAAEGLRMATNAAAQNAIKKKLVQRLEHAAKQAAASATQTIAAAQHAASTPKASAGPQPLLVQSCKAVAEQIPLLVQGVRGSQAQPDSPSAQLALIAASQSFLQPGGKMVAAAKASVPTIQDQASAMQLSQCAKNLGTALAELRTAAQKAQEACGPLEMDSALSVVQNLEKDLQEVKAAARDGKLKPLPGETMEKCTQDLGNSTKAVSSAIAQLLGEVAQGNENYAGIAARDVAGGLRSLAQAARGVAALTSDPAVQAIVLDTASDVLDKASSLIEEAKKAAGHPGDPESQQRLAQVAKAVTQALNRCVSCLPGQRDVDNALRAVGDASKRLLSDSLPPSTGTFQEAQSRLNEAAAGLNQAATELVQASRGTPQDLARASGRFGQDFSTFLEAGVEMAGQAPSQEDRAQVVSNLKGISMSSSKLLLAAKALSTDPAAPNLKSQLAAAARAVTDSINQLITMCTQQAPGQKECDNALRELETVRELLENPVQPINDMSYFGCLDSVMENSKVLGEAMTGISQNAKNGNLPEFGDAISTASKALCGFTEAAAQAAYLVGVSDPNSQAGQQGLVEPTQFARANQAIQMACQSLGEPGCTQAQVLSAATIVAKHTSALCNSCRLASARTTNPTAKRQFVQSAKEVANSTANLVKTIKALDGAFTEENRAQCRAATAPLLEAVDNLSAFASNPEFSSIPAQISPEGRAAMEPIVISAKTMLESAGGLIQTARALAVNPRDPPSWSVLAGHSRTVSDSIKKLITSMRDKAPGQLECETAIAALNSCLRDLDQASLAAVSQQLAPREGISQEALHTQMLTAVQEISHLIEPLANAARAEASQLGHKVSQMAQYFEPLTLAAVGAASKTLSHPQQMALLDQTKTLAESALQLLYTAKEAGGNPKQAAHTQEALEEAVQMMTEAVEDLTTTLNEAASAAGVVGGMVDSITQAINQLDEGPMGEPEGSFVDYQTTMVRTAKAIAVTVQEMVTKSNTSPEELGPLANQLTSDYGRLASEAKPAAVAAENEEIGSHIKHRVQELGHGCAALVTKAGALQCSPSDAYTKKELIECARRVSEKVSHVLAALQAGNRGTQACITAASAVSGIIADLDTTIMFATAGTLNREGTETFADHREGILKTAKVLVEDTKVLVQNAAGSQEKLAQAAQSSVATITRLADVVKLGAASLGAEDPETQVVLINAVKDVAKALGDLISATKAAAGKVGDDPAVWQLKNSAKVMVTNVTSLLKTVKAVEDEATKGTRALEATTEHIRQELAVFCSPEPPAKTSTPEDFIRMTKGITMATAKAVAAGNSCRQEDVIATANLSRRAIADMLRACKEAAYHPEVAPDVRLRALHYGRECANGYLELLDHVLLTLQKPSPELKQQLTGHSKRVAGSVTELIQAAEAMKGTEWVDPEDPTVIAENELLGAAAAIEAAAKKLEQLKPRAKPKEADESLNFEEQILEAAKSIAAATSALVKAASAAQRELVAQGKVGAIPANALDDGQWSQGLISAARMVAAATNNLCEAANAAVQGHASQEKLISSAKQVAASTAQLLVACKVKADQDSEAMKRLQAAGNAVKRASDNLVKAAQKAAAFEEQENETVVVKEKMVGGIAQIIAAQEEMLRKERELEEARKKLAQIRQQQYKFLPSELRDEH
# UniProt Q8IY95: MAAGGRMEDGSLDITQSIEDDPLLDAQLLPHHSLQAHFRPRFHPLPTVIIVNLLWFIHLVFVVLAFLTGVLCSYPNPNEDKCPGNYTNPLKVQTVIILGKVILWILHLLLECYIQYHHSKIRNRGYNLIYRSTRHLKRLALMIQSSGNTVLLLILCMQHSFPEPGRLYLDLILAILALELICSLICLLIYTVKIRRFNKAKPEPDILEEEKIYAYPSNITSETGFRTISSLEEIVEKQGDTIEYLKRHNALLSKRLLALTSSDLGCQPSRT
# UniProt Q92547, whole entry, looked up: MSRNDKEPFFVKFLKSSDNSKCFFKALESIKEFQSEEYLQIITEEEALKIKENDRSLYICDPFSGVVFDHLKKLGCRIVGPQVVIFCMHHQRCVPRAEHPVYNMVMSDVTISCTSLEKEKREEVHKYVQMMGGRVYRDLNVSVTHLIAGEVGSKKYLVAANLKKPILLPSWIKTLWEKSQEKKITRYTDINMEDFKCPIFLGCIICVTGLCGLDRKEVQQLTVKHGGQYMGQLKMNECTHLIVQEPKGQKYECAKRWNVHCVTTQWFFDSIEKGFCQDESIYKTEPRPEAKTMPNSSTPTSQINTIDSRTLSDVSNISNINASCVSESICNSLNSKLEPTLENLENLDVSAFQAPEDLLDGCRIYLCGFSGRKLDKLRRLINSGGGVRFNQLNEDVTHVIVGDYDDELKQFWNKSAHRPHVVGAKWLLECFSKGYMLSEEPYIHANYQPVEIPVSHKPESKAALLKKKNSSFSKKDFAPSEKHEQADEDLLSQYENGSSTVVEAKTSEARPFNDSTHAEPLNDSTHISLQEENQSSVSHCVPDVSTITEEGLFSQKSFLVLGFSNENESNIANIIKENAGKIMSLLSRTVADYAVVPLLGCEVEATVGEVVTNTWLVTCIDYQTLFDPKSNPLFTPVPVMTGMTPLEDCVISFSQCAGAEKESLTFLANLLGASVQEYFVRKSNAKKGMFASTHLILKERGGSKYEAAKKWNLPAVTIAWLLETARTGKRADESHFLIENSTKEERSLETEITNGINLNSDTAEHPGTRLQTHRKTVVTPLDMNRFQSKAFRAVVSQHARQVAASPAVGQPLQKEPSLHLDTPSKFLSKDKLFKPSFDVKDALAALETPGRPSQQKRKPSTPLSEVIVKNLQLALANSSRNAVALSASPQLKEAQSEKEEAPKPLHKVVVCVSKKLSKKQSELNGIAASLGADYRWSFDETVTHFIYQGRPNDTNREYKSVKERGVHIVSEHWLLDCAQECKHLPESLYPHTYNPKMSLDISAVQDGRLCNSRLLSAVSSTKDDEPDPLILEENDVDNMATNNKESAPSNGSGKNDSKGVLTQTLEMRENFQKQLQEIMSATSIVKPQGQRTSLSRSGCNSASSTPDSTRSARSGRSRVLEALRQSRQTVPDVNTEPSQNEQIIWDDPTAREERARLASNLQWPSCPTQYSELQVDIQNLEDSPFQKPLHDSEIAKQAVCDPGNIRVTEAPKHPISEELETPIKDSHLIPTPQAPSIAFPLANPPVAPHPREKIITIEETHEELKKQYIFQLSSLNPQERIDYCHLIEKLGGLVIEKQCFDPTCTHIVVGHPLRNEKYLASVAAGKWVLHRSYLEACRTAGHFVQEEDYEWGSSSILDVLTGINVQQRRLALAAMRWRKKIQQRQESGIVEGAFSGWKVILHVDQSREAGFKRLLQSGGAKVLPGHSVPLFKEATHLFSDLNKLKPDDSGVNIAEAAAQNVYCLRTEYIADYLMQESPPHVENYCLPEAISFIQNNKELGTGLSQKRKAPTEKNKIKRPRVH
# UniProt Q96HA7: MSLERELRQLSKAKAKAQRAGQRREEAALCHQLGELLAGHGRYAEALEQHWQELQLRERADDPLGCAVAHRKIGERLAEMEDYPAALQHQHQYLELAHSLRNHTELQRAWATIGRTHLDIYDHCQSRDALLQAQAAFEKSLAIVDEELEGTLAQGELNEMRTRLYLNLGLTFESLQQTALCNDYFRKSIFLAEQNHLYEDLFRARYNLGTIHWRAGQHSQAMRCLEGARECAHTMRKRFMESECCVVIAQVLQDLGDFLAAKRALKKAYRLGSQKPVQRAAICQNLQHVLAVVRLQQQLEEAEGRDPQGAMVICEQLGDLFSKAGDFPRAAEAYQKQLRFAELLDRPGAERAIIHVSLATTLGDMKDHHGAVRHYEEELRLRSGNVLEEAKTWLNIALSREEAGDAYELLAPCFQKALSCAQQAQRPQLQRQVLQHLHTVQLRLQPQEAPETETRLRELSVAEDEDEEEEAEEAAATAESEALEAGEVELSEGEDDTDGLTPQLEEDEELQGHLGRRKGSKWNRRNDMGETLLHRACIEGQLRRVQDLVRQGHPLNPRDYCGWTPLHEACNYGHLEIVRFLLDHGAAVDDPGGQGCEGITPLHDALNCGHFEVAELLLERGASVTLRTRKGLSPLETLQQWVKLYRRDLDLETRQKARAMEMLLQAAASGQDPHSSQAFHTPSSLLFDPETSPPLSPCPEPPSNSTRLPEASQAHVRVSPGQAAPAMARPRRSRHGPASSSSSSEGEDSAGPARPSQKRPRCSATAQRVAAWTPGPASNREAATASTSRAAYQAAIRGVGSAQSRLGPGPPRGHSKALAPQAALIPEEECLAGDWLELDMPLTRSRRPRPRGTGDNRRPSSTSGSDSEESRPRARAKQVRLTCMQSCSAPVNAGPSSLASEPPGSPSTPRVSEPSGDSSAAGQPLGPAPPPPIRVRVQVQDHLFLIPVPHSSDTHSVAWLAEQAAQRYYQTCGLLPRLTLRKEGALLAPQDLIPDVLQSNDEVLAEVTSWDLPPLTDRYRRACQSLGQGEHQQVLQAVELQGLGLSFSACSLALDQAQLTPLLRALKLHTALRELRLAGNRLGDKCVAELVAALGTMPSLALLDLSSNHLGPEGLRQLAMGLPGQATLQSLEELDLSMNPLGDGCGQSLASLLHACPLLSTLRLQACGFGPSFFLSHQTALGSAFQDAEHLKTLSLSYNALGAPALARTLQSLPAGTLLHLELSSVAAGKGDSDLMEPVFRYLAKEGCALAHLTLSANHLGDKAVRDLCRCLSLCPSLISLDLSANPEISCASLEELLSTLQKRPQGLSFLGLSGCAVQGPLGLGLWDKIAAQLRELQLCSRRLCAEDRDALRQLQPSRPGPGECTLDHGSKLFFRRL
# UniProt P11387: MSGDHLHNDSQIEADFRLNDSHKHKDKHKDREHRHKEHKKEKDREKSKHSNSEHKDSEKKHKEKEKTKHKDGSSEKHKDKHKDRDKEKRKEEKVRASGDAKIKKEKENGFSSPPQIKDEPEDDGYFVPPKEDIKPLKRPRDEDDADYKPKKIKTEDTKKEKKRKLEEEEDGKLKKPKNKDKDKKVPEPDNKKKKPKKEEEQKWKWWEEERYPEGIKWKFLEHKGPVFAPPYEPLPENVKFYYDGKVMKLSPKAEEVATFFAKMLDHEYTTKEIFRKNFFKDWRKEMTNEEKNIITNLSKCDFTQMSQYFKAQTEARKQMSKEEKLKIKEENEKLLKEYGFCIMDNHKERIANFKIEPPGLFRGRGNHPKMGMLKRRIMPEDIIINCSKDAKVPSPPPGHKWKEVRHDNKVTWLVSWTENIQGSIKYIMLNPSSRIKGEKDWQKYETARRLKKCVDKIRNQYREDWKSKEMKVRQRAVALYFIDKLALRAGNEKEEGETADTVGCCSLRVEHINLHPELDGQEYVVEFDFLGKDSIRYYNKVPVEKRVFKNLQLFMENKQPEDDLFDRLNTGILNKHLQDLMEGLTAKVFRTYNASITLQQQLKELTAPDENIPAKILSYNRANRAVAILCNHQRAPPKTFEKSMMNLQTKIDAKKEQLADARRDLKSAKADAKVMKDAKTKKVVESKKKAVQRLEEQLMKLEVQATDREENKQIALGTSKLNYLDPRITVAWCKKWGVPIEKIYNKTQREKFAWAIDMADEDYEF
# This is one part of the list.
# Compound: CC1Cc2ccccc2N1C(=O)C1CCCN(C1)C(=O)CCl (mixture of isomers) [TRIM25 ligand 11 (diastereomer mixture)]
# Assay: probe-labelled cysteine peptide fold change vs DMSO (competition) (log2 fold change); higher = less target engagement (more negative = stronger competition)
# Conditions: 10 µM; THP-1; incubation time: 4 h
# 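Also: competitive chemoproteomic profiling in live THP-1 cells with an iodoacetamide desthiobiotin (IA-DTB) probe, comparing probe-labelled peptide intensities in compound-treated cells against DMSO-treated controls.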
row,Target,probe-labelled cysteine peptide fold change
1,TNFAIP3_P21580_158_SQEFVETGLCYDTR (UniProt P21580),-0.00411
2,TLN1_Q9Y490_750_AVEGCVSASQAATEDGQLLR (UniProt Q9Y490),0.189
3,TLN1_Q9Y490_1939_AGALQCSPSDAYTK (UniProt Q9Y490),0.0307
4,TNPO1_Q92973_142+153_LCSLLDSEDYNTCEGAFGALQK (UniProt Q92973),-0.174
5,TMED5_Q9Y3A6_47_ECFYQPMPLK (UniProt Q9Y3A6),-0.157
6,TMEM94_Q12767_674_LSCVTK (UniProt Q12767),-0.0381
7,TLN1_Q9Y490_243_ACEFAGFQCQIQFGPHNEQK (UniProt Q9Y490),0.073
8,TMEM260_Q9NX78_647_NYAIACER (UniProt Q9NX78),-0.0872
9,TMEM192_Q8IY95_266_RLLALTSSDLGCQPSR (UniProt Q8IY95),0.0694
10,TLN2_Q9Y4G6_289_NCGEMSEIEAK (UniProt Q9Y4G6),0.213
11,TLR6_Q9Y2C9_672_EDIQICLHER (UniProt Q9Y2C9),-0.000798
12,TMEM192_Q8IY95_266_LLALTSSDLGCQPSR (UniProt Q8IY95),-0.0897
13,TOPBP1_Q92547_60_SLYICDPFSGVVFDHLKK (UniProt Q92547),-0.305
14,TNFAIP2_Q03169_356_LDGHCHSELAIDIIQITSQAQAK (UniProt Q03169),0.0507
15,TOMM34_Q15785_250_DCTEALK (UniProt Q15785),-0.149
16,TONSL_Q96HA7_30_REEAALCHQLGELLAGHGR (UniProt Q96HA7),-0.0229
17,TOP2A_P11388_1145_EKKDELCR (UniProt P11388),-0.251
18,TMEM39A_Q9NV64_276_NEVECLK (UniProt Q9NV64),0.306
19,TMEM209_Q96SK2_455_KWDTDLPTDSAIIMHVFCTYLDSR (UniProt Q96SK2),0.0922
20,TOR1AIP2_Q8NFQ8_310_CLSHHVADAYTSSQK (UniProt Q8NFQ8),0.143

row,Target,probe-labelled cysteine peptide fold change
1,TLN1_Q9Y490_1509_HTSALCNSCR (UniProt Q9Y490),0.139
2,TLN1_Q9Y490_29_TMQFEPSTMVYDACR (UniProt Q9Y490),0.051
3,TMA16_Q96EY4_162_KICANDAIPK (UniProt Q96EY4),-0.223
4,TMEM87B_Q96K49_121_LSVDEDFCHYLK (UniProt Q96K49),-0.0996
5,TMEM120B_A0PK00_8_CEREWHELEGEFQELQETHR (UniProt A0PK00),-0.18
6,TOP1_P11387_505_AGNEKEEGETADTVGCCSLR (UniProt P11387),-0.344
7,TNKS1BP1_Q9C0C2_136_CAAPGGVR (UniProt Q9C0C2),-0.0427
8,TMPO_P42166_330_DIVENICGR (UniProt P42166),-0.0447
9,TLN1_Q9Y490_2408_MVAAATNNLCEAANAAVQGHASQEK (UniProt Q9Y490),0.148
10,TOPBP1_Q92547_113_AEHPVYNMVMSDVTISCTSLEK (UniProt Q92547),-0.145
11,TONSL_Q96HA7_124_THLDIYDHCQSR (UniProt Q96HA7),0.0838
12,TOP2A_P11388_1008_LQTSLTCNSMVLFDHVGCLK (UniProt P11388),0.0519
13,TMEM173_Q86WV6_148_GLAPAEISAVCEK (UniProt Q86WV6),0.0912
14,TNIP2_Q8NFZ5_144_AASDVLCR (UniProt Q8NFZ5),-0.0729
15,TNS3_Q68CZ2_88_MCTICK (UniProt Q68CZ2),-0.134
16,TMEM209_Q96SK2_495_TFTSQHFVQTPNKPDVTNENVFCIYQSAINPPHYELIYQR (UniProt Q96SK2),0.127
17,TOE1_Q96GM8_371_QVCGDSIKPEETEQEVAADETR (UniProt Q96GM8),0.0102
18,TMEM259_Q4ZIN3_246_LSIPVMVVTLDPTRDQCFGDR (UniProt Q4ZIN3),0.0157
19,TOP1_P11387_386_RIMPEDIIINCSK (UniProt P11387),-0.0617
20,TNRC18_O15417_2602_NCSAASSR (UniProt O15417),-0.131
